# Data from PubChem BioAssay AID504467 (National Center for Advancing Translational Sciences (NCATS), 2011).
# Hit rate of the full screen: of about 330,000 compounds, about 7,700 (2.3%) were called active. The shares of active, inactive and inconclusive entries below differ from those in the screen. Calls come from the whole dose curve; as a rule, active = well fitted inhibition curve with a large enough effect; inconclusive = small, poorly fitted or top-dose-only effect, or effect the other way; inactive = flat fitted curve, though single readings scatter. Potencies beside an inconclusive call are fits to weak or partial responses and may not hold up.
# Experiment: qHTS screen for small molecules that inhibit ELG1-dependent DNA repair in human embryonic kidney (HEK293T) cells expressing luciferase-tagged ELG1; note: nearly all actives have a fitted effect of over 55% in size
# Conditions: HEK293T ELG1-luciferase reporter, luminescence, 16 h, DNA damage induced by 5-fluorouridine; series mostly up to 46.1 µM
# How it was run: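 DMSO vehicle served as the neutral condition. Each well held 2,000 cells given 5-fluorouridine plus compound; after 16 hr at 37 °C/5% CO2, ONE-Glo was added and luciferase measured 30 min later.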
# Potency is the fitted concentration of half-maximal effect.
row,SMILES,Potency
1,COc1cccc2cc(C(N)=O)/c(=N\NC(=O)c3ccccc3)oc12,"inconclusive: 8.2 µM [activator, partial curve]"
2,Cc1ccccc1Nc1c(-c2cccnc2)nc2ccccn12,inactive
3,CC(=O)NS(=O)(=O)c1ccc(NC(=O)c2ccc3c(c2)C(=O)N(CCC(C)C)C3=O)cc1,inactive
4,Cc1nc2ccc(NC(=O)c3ccc(=O)[nH]c3)cc2s1,"inconclusive: 29.1 µM [activator, single point]"
5,CCOC(=O)c1[nH]c2ccccc2c1NC(=O)c1ccc(S(=O)(=O)N2CCOCC2)cc1,"inconclusive: 6.51 µM [inhibitor, partial curve, poor fit]"
6,C/C(=N\NC(=O)C1CC1)c1ccc(C)c(C)c1,"inconclusive: 14.6 µM [activator, partial curve]"
7,CN(C)CCCNS(=O)(=O)c1ccc(N2CCC(c3ccc(Cl)cc3)=N2)cc1,"inconclusive: 29.1 µM [inhibitor, single point]"
8,CC(C)C(c1nnnn1C(C)(C)C)N1CCN(Cc2cccnc2)CC1 (stereo not drawn),"inconclusive: 29.1 µM [activator, partial curve, poor fit]"
9,COc1ccc(-c2csc3ncnc(N4CCN(c5ccccc5OC)CC4)c23)cc1,active: 13 µM
10,CCCCCCCCNC(C)C(O)c1ccc(SC(C)C)cc1 (stereo not drawn),"inconclusive: 32.6 µM [inhibitor, single point]"
11,Nc1ccc(Cc2nc3cc4ccccc4cc3[nH]2)cc1,"inconclusive: 16.4 µM [activator, partial curve]"
12,CCN(CC)S(=O)(=O)c1ccc(NC2CCN(Cc3ccccc3)CC2)nc1,inactive
13,CCC(=O)Nc1cccc(-c2cc3ccccc3oc2=O)c1,"inconclusive: 8.2 µM [activator, partial curve]"
14,CCC1CCCCN1C(=O)c1cc(S(=O)(=O)N2CCOCC2)ccc1C (stereo not drawn),inactive
15,Cc1[nH]c(=S)c(C#N)c(C)c1C(=O)Nc1ccccc1,inactive
16,CC(C)(OC(=O)c1ccc(C(F)(F)F)cc1)c1cc2ccccc2c(=O)o1,inactive
17,Cc1c(/C=N/NC(=O)CNc2ccccc2)c2ccccn2c1C(=O)c1ccccc1,"inconclusive: 23.1 µM [inhibitor, single point]"
18,O=C1/C(=C/c2ccccc2F)SC(=S)N1CC(=O)N1CCCCC1c1cccnc1 (stereo not drawn),inactive
19,CCNc1c(NC(=O)c2cccs2)c(=O)oc2ccccc12,"inconclusive: 18.3 µM [activator, partial curve, poor fit]"
20,N#Cc1cc(C(=O)c2cc(Br)ccc2O)cn(Cc2ccccc2)c1=O,"inconclusive: 25.9 µM [inhibitor, single point]"
21,CCn1c(C)nc2cc(C(=O)NNS(=O)(=O)c3ccccc3F)ccc21,"inconclusive: 20.6 µM [activator, partial curve, poor fit]"
22,CC(C)NC(=O)NC(=O)CSc1ccccc1F,"inconclusive: 18.4 µM [activator, single point]"
23,O=C(NC(=S)N1CCN(c2ccccc2)CC1)c1ccc(S(=O)(=O)N2CCOCC2)cc1,active: 18.3 µM
24,Cc1ccccc1C1C(=O)c2ccccc2C1=O,inactive
25,O=C(N/N=C/c1ccc([N+](=O)[O-])o1)c1cc(-c2ccc(-c3ccccc3)cc2)nc2ccccc12,"inconclusive: 1.46 µM [activator, full curve]"

# Looked up by structure from the list above:
row,SMILES,Potency
23,O=C(NC(=S)N1CCN(c2ccccc2)CC1)c1ccc(S(=O)(=O)N2CCOCC2)cc1,active: 18.3 µM
22,CC(C)NC(=O)NC(=O)CSc1ccccc1F,"inconclusive: 18.4 µM [activator, single point]"
25,O=C(N/N=C/c1ccc([N+](=O)[O-])o1)c1cc(-c2ccc(-c3ccccc3)cc2)nc2ccccc12,"inconclusive: 1.46 µM [activator, full curve]"
5,CCOC(=O)c1[nH]c2ccccc2c1NC(=O)c1ccc(S(=O)(=O)N2CCOCC2)cc1,"inconclusive: 6.51 µM [inhibitor, partial curve, poor fit]"

# Further results

row,SMILES,Potency
1,Cc1[nH]c2ccc(C(=O)NC3CCC(C)CC3)cc2c1C (stereo not drawn),"inconclusive: 6.51 µM [activator, full curve]"
2,Cc1ccc(NC(=O)c2cnccn2)c(C)c1,"inconclusive: 16.4 µM [activator, partial curve]"
3,Cc1ccc(C)c(CN2C(=O)c3ccccc3S(=O)c3ccc(C(=O)N4CCN(c5ccccn5)CC4)cc32)c1 (stereo not drawn),"inconclusive: 1.16 µM [inhibitor, single point]"
4,O=C(COc1ccc(Cl)cc1)Nc1ccc(C(=O)NCc2cccnc2)cc1,"inconclusive: 35.5 µM [inhibitor, single point]"
5,O=C(CN1C(=O)C(=O)N(C2CCCC2)C1=O)Nc1ccc(Cl)cc1C(F)(F)F,inactive
6,CCC1Oc2ccc(C)cc2N(CC(=O)NCc2ccccc2OC)C1=O (stereo not drawn),inactive
7,C[C@H]1CN([C@@H](C)CO)C(=O)c2cccc(NC(=O)C3CC3)c2O[C@H]1CN(C)Cc1ccc(-c2ccccc2)cc1,"inconclusive: 20.6 µM [inhibitor, single point]"
8,Cc1nn(CC(=O)Nc2ccc(Cl)cc2Cl)c(=O)c2ccccc12,inactive
9,CCOc1ccc(S(=O)(=O)NC(Cc2c[nH]c3ccccc23)C(=O)O)cc1 (stereo not drawn),inactive
10,Cc1nnc(SCc2ccc(Cl)c(Cl)c2)s1,"inconclusive: 29.1 µM [activator, single point]"
11,CCOC(=O)c1[nH]c(C)c(C(=O)NCCC2=CCCCC2)c1C,"inconclusive: 11.2 µM [activator, partial curve]"
12,Cc1ccc2c(c1)nnn2C1CCN(CC(=O)NCc2ccccc2F)CC1,"inconclusive: 20.6 µM [inhibitor, single point]"
13,O=C(Nc1ccccc1N1CCN(c2ccccc2)CC1)c1ccccc1,inactive
14,CCOC(=O)C1(C)NC(c2ccc(OC)c(OC)c2)C2C(=O)N(CC)C(=O)C21 (stereo not drawn),"inconclusive: 5.8 µM [inhibitor, partial curve, poor fit]"
15,COc1ccccc1CNCc1ccc(C)cc1,inactive
16,COc1cc(S(=O)(=O)Nc2cccc(C)c2)ccc1NC(=O)c1cccnc1,"inconclusive: 9.2 µM [inhibitor, partial curve]"
17,O=C(CCn1c(=O)c2cccn2c2ccccc21)Nc1ccc(F)cc1,inactive
18,NC(=O)c1ccc(NC(=O)COc2coc(CN3CCc4ccccc4C3)cc2=O)cc1,"inconclusive: 1.16 µM [inhibitor, single point]"
19,O=C1CSC2(N1)C1CC3CC(C1)CC2C3 (stereo not drawn),inactive
20,COc1ccc(C(CNC(=O)c2cc(C)on2)N(C)C)cc1 (stereo not drawn),inactive
21,COc1ccc(/C=N/OCC(=O)N2CC3(C)CC2CC(C)(C)C3)cc1OC (stereo not drawn),inactive
22,CCOc1ccc(CN2CCNC(=O)C2CC(=O)NCc2ccccn2)cc1 (stereo not drawn),inactive
23,Clc1ccccc1CN1CCN(/N=C/C=C\c2ccco2)CC1,"inconclusive: 20.6 µM [activator, single point]"
24,Cc1onc(-c2c(F)cccc2Cl)c1C(=O)N1CCN(S(C)(=O)=O)CC1,inactive
25,OC1(c2ccc(F)cc2)CSC(=Nc2cccnc2)N1Cc1ccco1 (stereo not drawn),active: 23.1 µM

row,SMILES,Potency
1,COc1ccc(-n2nc3c(N4CCC(C(=O)N5CCCCCC5)CC4)nnc(C)c3c2C)cc1,inactive
2,COc1cccc(NC(=O)N2CCN(c3nc(-c4cccc(OC)c4)cs3)CC2)c1,active: 14.6 µM
3,Cn1c(C(=O)NCCCN2CCCCCC2)cc2c(=O)n(C)c3ccccc3c21,"inconclusive: 18.4 µM [activator, partial curve]"
4,COc1cccc(N2CCN(c3nc(-c4ccccc4C)cc(=O)[nH]3)CC2)c1,"inconclusive: 25.9 µM [inhibitor, single point]"
5,CC(C)c1nc2c(c(=O)c3ccccc3n2C)c(=O)n1CCc1ccccc1,"inconclusive: 25.9 µM [inhibitor, single point]"
6,Cc1nnsc1C(=O)Nc1ccc(S(=O)(=O)N2CCCCC2)cc1,active: 11.6 µM
7,CC(Oc1ccc(Cl)cc1Cl)C(=O)Nc1cccc(O)c1 (stereo not drawn),"inconclusive: 13 µM [activator, single point]"
8,Cc1cc(N2CCCC2=O)ccc1S(=O)(=O)NCCOc1ccccc1,"inconclusive: 23.1 µM [inhibitor, single point]"
9,CCOC(=O)CSc1nc2ccccc2c(=O)n1CCN1CCOCC1,"inconclusive: 32.6 µM [activator, partial curve, poor fit]"
10,CN1CCN(CCCOc2ccc(-c3ccccc3)cc2)CC1,"inconclusive: 18.3 µM [activator, partial curve]"
11,O=C1C(SC(F)(F)C(F)F)=C(C(F)(F)F)OC2C3C=CC(C3)C12 (stereo not drawn),"inconclusive: 29.1 µM [inhibitor, single point]"
12,Cc1cc(C)c(NC(=O)CCCN2CCCC2)c(C)c1,inactive
13,CCOC(=O)c1nnn(CC(=O)NC(=O)Nc2cccc(CC)c2)c1C(=O)OCC,inactive
14,Cc1ccc(Nc2cc(C)c3ccc(O)cc3n2)cc1C,"inconclusive: 20.6 µM [activator, single point]"
15,CSc1nsc(SCC(=O)N2CCCc3ccccc32)n1,inactive
16,COc1cc(OC)c(C(=O)OCC(=O)Nc2ccccc2Cl)cc1OC,"inconclusive: 23.1 µM [inhibitor, single point]"
17,COc1ccc(S(=O)(=O)N2CCCCC2)cc1NC(=O)c1ccc2ccccc2n1,inactive
18,CCc1ccc(NC(=O)c2ccccc2Br)cc1,"inconclusive: 9.2 µM [activator, partial curve]"
19,Cc1ccc(NC(=O)NCCCCc2ccccc2)cc1,"inconclusive: 16.4 µM [activator, partial curve, poor fit]"
20,COc1ccc(CCNc2ncnc3c2c(C)c(C)n3CCO)cc1OC,active: 23.1 µM
21,Nc1cc(N)nc(SCC(=O)Nc2cc(S(=O)(=O)N3CCOCC3)ccc2Cl)n1,"inconclusive: 29.1 µM [inhibitor, single point]"
22,Cc1ccc(NC(=O)Cn2c(-c3ccc(F)cc3)cnc2SCC(=O)Nc2c(C)cccc2C)cc1,"inconclusive: 32.6 µM [activator, partial curve, poor fit]"
23,COc1ccc(C(=O)NCC(c2ccc3c(c2)OCO3)N2CCN(c3ccc(OC)cc3)CC2)cc1 (stereo not drawn),"inconclusive: 20.6 µM [inhibitor, single point]"
